A weaker result is weaker than the reference pair of the same experiment.
Experiments:
[1] = target: OsDREB1A-DBD E66A (Oryza sativa (rice)) (UniProt Q64MA1); experiment: EMSA; settings: 0.6 uM protein; EMSA: 0.01 uM FAM-dsDNA, 50 mM NaH2PO4, 150 mM NaCl, 5 mM DTT, 2% glycerol, pH 6.8, 15 min, room temperature; 12% native PAGE in 0.5x TBE; recombinant protein; residues 32-103; protein details: C-terminal His-tag (pET28)
[2] = target: OsDREB1A-DBD R40A (Oryza sativa (rice)) (UniProt Q64MA1); experiment: EMSA; settings: 0.6 uM protein; EMSA: 0.01 uM FAM-dsDNA, 50 mM NaH2PO4, 150 mM NaCl, 5 mM DTT, 2% glycerol, pH 6.8, 15 min, room temperature; 12% native PAGE in 0.5x TBE; recombinant protein; residues 32-103; protein details: C-terminal His-tag (pET28)

The chains behind the UniProt entries cited, without tags or fusion partners. Residues count along the entry.
UniProt Q64MA1, 32-103 E66A: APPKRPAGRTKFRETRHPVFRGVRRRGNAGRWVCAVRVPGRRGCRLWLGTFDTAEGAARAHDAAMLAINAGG
UniProt Q64MA1, 32-103 R40A: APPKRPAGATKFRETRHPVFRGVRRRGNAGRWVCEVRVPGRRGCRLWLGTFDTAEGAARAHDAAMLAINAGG

GTACGCCGACACT (double strand) [CRT]
binding result [1]: binds more weakly
binding result [2]: binds more weakly
